Test results taken from the supplement of paper PMC12819154, “High-throughput peptide-centric local stability assay extends protein–ligand identification to membrane proteins, tissues and bacteria” (Nature Structural & Molecular Biology, 2025).
This is one part of the list. Most entries show no effect beyond the scatter of the controls.

Sequences of proteins named here, by UniProt entry; tags and fusion partners are left off. A change or cut given only in a name is not applied to a line headed by its entry.
UniProt Q9BQI0: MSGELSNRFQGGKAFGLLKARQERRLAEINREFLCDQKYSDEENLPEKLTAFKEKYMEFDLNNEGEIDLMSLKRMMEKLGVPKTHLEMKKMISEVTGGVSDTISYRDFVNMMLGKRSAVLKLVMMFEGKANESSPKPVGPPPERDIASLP
UniProt Q9BQ70: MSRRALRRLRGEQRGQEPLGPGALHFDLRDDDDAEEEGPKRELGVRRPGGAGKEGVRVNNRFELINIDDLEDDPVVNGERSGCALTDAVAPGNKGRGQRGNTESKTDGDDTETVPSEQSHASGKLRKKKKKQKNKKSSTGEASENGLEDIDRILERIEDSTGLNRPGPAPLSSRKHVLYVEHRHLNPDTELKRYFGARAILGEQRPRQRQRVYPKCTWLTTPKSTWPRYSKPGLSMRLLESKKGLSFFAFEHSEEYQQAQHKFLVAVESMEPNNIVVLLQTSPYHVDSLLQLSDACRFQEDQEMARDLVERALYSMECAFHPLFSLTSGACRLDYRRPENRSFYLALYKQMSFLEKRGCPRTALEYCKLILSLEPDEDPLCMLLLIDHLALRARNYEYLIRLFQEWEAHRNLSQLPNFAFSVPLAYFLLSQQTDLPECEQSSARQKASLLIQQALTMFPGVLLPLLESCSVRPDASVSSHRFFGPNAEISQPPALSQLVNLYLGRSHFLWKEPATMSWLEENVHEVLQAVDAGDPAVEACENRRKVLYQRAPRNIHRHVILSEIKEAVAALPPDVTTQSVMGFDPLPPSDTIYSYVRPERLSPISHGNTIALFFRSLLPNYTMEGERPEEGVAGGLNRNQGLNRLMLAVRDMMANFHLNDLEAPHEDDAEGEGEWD
UniProt Q99569: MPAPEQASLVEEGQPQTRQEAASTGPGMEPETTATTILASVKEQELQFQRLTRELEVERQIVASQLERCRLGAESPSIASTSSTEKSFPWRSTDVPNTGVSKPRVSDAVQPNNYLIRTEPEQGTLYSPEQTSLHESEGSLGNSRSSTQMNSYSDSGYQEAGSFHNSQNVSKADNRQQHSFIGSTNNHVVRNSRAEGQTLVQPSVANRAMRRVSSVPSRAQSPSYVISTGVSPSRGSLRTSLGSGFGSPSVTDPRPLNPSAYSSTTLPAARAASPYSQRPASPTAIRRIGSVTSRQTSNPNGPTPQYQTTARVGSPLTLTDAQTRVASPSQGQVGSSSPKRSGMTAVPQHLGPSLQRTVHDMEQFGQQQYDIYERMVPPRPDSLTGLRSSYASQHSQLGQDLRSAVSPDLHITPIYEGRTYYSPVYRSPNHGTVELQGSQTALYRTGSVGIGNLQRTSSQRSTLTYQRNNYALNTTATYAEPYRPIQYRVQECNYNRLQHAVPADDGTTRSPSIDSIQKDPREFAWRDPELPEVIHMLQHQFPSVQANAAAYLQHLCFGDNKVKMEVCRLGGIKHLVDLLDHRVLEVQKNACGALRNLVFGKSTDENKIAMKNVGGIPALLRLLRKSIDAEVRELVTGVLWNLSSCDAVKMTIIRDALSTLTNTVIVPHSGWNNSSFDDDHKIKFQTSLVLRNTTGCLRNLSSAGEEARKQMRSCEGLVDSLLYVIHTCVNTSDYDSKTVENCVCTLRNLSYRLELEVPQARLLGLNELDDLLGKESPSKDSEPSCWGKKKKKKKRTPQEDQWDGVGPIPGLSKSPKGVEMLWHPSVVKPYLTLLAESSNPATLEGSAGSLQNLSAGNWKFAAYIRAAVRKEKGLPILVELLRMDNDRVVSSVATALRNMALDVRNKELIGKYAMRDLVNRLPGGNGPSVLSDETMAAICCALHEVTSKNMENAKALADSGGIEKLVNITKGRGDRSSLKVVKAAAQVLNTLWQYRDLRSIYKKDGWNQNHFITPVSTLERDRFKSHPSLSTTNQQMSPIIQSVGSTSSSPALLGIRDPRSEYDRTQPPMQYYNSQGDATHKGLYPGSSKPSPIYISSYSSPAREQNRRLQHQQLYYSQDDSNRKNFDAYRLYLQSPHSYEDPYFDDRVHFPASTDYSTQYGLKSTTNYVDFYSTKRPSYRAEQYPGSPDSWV
UniProt Q9BRT8: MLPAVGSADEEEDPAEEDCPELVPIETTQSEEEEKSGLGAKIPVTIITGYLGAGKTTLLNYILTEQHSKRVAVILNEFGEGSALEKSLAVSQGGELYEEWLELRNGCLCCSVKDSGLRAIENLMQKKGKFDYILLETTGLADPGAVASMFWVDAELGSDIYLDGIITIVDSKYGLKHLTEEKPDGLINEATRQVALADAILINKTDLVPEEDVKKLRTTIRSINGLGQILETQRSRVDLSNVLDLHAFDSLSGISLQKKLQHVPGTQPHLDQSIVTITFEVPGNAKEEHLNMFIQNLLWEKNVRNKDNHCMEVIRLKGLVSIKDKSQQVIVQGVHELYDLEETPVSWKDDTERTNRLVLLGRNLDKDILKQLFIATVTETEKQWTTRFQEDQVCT
UniProt Q99967: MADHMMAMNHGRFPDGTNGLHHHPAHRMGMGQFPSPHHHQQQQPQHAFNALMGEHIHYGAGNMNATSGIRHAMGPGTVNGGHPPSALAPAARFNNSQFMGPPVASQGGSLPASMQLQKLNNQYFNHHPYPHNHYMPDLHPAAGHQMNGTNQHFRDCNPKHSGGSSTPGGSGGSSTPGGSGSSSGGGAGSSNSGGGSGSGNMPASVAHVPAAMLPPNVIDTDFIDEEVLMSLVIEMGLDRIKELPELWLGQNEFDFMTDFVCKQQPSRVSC
UniProt Q99798: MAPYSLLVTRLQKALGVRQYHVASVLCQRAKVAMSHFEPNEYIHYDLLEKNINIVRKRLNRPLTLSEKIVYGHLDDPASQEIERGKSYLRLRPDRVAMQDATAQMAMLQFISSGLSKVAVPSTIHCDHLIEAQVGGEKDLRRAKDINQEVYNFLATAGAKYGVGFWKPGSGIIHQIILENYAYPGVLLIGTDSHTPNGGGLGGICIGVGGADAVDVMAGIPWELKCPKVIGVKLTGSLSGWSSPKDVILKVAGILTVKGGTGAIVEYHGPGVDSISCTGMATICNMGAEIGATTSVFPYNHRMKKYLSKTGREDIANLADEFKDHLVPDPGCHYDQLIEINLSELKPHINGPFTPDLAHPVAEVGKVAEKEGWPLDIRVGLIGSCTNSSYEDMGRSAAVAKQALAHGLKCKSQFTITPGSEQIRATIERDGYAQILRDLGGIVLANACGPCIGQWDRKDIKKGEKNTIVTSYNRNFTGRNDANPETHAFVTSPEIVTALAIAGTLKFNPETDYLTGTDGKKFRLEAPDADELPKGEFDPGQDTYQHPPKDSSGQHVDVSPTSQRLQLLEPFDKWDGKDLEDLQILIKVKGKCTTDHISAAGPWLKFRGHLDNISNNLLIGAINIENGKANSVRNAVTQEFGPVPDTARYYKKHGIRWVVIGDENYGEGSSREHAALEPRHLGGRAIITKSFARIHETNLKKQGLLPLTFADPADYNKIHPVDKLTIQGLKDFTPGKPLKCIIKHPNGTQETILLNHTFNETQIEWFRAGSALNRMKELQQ
UniProt Q99653: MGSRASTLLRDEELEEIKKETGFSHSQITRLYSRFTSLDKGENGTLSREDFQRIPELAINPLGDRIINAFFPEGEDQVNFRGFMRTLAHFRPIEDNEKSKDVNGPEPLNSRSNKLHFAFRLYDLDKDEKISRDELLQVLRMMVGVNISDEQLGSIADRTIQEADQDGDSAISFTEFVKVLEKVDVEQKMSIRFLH
UniProt Q9BU64: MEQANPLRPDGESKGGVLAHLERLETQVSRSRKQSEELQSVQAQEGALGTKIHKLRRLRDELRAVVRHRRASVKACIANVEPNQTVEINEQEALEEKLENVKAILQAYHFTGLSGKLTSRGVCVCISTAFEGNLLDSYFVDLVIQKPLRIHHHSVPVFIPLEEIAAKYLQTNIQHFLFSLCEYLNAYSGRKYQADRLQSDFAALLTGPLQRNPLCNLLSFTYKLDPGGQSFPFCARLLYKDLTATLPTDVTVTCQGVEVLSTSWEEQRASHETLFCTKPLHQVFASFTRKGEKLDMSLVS
UniProt Q9BUA3: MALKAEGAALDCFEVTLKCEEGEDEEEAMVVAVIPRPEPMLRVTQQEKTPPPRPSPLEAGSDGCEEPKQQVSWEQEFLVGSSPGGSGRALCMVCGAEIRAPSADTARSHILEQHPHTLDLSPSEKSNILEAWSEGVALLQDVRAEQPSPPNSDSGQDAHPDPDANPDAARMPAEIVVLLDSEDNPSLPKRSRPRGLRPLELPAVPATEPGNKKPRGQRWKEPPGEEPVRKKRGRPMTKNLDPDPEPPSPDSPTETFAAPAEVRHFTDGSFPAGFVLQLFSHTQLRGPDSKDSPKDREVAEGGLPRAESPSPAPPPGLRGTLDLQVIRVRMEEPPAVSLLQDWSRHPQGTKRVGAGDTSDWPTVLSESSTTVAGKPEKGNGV
UniProt Q9BRR8: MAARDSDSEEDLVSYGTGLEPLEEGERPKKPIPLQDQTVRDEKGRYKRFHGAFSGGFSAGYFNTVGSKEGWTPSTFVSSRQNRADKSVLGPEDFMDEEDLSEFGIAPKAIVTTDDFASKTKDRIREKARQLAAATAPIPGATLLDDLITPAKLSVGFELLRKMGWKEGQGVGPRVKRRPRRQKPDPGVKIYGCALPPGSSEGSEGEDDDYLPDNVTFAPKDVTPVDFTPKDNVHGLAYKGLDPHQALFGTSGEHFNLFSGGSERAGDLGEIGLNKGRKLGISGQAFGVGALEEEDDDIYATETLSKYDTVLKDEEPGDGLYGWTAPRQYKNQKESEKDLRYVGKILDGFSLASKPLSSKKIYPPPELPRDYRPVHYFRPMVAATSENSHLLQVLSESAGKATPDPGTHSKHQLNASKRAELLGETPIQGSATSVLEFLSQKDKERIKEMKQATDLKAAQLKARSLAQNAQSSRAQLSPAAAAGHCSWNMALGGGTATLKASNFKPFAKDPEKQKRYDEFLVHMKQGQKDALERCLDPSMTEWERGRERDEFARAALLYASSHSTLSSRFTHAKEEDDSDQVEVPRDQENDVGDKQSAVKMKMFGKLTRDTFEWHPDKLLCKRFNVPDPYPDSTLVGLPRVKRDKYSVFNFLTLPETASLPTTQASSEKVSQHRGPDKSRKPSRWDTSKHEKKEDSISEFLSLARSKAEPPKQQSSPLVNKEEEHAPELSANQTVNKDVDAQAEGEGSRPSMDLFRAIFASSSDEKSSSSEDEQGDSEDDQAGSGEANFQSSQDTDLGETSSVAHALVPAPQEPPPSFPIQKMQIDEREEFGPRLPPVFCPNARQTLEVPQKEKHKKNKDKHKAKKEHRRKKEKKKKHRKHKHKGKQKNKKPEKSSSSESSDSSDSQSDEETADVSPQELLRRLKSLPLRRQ
UniProt Q99583: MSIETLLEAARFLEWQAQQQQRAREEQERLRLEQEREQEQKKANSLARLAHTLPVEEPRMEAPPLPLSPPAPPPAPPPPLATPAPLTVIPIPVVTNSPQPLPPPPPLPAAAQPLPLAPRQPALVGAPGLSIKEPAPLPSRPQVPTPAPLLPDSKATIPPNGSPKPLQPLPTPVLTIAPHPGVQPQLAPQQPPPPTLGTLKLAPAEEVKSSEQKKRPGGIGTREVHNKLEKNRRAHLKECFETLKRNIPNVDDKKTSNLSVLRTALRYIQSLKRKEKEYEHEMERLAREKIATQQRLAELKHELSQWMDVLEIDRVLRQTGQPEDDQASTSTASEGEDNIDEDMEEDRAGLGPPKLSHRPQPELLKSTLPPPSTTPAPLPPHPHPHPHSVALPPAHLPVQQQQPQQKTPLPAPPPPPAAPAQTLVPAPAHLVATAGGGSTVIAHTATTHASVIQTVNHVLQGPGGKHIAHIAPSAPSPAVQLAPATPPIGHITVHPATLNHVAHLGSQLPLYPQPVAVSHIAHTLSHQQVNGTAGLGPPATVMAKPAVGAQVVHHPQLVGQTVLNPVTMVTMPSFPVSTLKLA
UniProt Q9BUB4: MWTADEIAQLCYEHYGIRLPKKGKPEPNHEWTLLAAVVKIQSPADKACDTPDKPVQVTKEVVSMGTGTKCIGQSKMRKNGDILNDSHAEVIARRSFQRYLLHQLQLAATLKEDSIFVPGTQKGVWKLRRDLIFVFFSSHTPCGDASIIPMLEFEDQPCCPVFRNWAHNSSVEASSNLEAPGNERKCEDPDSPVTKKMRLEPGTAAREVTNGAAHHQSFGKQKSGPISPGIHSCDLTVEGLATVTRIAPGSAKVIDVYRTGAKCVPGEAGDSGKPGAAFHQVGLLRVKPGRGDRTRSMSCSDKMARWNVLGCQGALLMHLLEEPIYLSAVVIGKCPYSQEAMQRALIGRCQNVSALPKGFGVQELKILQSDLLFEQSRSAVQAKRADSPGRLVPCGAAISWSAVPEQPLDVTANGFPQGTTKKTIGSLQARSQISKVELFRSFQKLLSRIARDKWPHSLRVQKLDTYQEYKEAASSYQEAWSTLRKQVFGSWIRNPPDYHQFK
UniProt Q9BTE1, whole entry: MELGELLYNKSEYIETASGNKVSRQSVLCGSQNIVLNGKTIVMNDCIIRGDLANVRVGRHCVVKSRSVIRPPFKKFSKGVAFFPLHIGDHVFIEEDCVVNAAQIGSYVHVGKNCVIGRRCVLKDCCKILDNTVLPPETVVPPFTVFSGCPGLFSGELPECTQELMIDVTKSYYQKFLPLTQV

compound: CN[C@@H]1C[C@H]2O[C@@](C)([C@@H]1OC)n1c3ccccc3c3c4c(c5c6ccccc6n2c5c31)C(=O)NC4 [staurosporine]; experiment: log2 fold change of tryptic peptide abundance, ligand vs vehicle (limited proteolysis) (log2 ratio); higher = more trypsin-susceptible (destabilized); details: ligand concentration: 20 uM; sample: K562 cleared lysate; digestion: 4 min, 22 C (HT-PELSA RT4min, Orbitrap Astral)

Target | log2 fold change
THTPA (peptide sequence: LLEVNSSR, peptide start residue: 209) (UniProt Q9BU02) | 0.163
TCHP (peptide sequence: HVVNSWEMQKEEK, peptide start residue: 161) (UniProt Q9BT92) | -0.451
AIF1L (peptide sequence: LVMMFEGK, peptide start residue: 122) (UniProt Q9BQI0) | 0.574
C2orf49 (peptide sequence: KRPLIVFDGSSTSTSIK, peptide start residue: 98) (UniProt Q9BVC5) | -0.129
EFHD1 (peptide sequence: FEAELKAEQDER, peptide start residue: 205) (UniProt Q9BUP0) | 0.379
B7Z5R0 (peptide sequence: EGTGALEKPDPVAAGSPGLK, peptide start residue: 126) (UniProt Q9BV97) | -0.477
UniProt Q9BRX9 (peptide sequence: DTHVVSCSEDGK, peptide start residue: 247) | 1.1
TUBB6 (peptide sequence: AALVDLEPGTMDSVR, peptide start residue: 63) (UniProt Q9BUF5) | -0.203
RBBP8 (peptide sequence: AFVEPYFKGDER, peptide start residue: 775) (UniProt Q99708) | -0.245
TCF25 (peptide sequence: SFYLALYK, peptide start residue: 342) (UniProt Q9BQ70) | 0.29
POLR3GL (peptide sequence: TTEDKEETIQK, peptide start residue: 140) (UniProt Q9BT43) | -0.121
UniProt Q9BVG3 (peptide sequence: TFAEPALAPSLK, peptide start residue: 56) | 0.317
C17orf80 (peptide sequence: TVMSHGCENFNTR, peptide start residue: 326) (UniProt Q9BSJ5) | 0.305
PKP4 (peptide sequence: TGSVGIGNLQR, peptide start residue: 445) (UniProt Q99569) | -0.279
CBWD1 (peptide sequence: FQEDQVCT, peptide start residue: 388) (UniProt Q9BRT8) | -0.285
ELOVL1 (peptide sequence: ALQQNGAPGIAK, peptide start residue: 264) (UniProt Q9BW60) | -0.121
UniProt Q99502 (peptide sequence: IGKESCFER, peptide start residue: 513) | 0.0281
CITED2 (peptide sequence: FPDGTNGLHHHPAHR, peptide start residue: 13) (UniProt Q99967) | -0.144
ACO2 (peptide sequence: DGYAQILR, peptide start residue: 430) (UniProt Q99798) | 0.283

Quoted at random: 2 entries already listed, in no set order.
Target | log2 fold change
CITED2 (peptide sequence: FPDGTNGLHHHPAHR, peptide start residue: 13) (UniProt Q99967) | -0.144
CBWD1 (peptide sequence: FQEDQVCT, peptide start residue: 388) (UniProt Q9BRT8) | -0.285

Additional results

Target | log2 fold change
UniProt Q99653 (peptide sequence: TLAHFRPIEDNEK, peptide start residue: 86) | -0.32
EYA3 (peptide sequence: QHNMPFWR, peptide start residue: 547) (UniProt Q99504) | 0.357
COQ7 (peptide sequence: TSVGPVIQK, peptide start residue: 77) (UniProt Q99807) | 0.293
CENPO (peptide sequence: AILQAYHFTGLSGK, peptide start residue: 103) (UniProt Q9BU64) | -0.78
UniProt Q9BTT6 (peptide sequence: SLEELLLDANQLR, peptide start residue: 37) | 0.115
GNL3 (peptide sequence: VIEASDVVLEVLDARDPLGCR, peptide start residue: 137) (UniProt Q9BVP2) | 0.377
TARS2 (peptide sequence: GSELPVLER, peptide start residue: 175) (UniProt Q9BW92) | 0.127
UniProt Q9BUA3 (peptide sequence: GLRPLELPAVPATEPGNK, peptide start residue: 195) | -0.256
GPATCH1 (peptide sequence: DNVHGLAYK, peptide start residue: 231) (UniProt Q9BRR8) | 0.556
BCL7B (peptide sequence: WVTVGDTSLR, peptide start residue: 35) (UniProt Q9BQE9) | -0.0312
MNT (peptide sequence: LSHRPQPELLK, peptide start residue: 355) (UniProt Q99583) | 0.352
UniProt Q99766 (peptide sequence: AASEWLLR, peptide start residue: 65) | 0.256
PHF20 (peptide sequence: SVEESYITSEHCYQKPR, peptide start residue: 829) (UniProt Q9BVI0) | -0.322
ADAT1 (peptide sequence: EVVSMGTGTK, peptide start residue: 60) (UniProt Q9BUB4) | 0.387
DCTN5 (peptide sequence: MELGELLYNK, peptide start residue: 1) (UniProt Q9BTE1) | -0.222
NOC4L (peptide sequence: EYLDYDDTR, peptide start residue: 173) (UniProt Q9BVI4) | 0.278
RIOK1 (peptide sequence: SSQDHVDEEVFKR, peptide start residue: 415) (UniProt Q9BRS2) | -0.172
KATNB1 (peptide sequence: KGHDTMCVVLTSR, peptide start residue: 493) (UniProt Q9BVA0) | -0.251
